# Where a name gives a salt, the structure may show the parent alone. The list shows a part of the results. This data set is noisy: repeats of one test often differ as much as different tests do.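 The human kidney-derived cells carry a stably integrated construct of eight TEAD-binding elements driving luciferase, read by luminescence in a drug-repurposing library screen. A compound counts as a hit when its signal is more than five robust Z scores above the plate mean.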
# System: HEK293A TEAD-LUC reporter
# Test: TEAD-luciferase reporter activity (YAP activation), robust Z score vs plate; higher = stronger YAP/TEAD activation
# Conditions: 24 h
SMILES,TEAD-luciferase reporter activity (compound concentration: 200 nM),TEAD-luciferase reporter activity (compound concentration: 10 uM),TEAD-luciferase reporter activity (compound concentration: 2 uM)
CCCN1C[C@H](CSC)C[C@@H]2c3cccc4[nH]cc(c34)C[C@H]21 [pergolide],inactive: -1.33,active: 9.11,–
"CCCN1C[C@H](CSC)C[C@@H]2c3cccc4[nH]cc(c34)C[C@H]21 [pergolide mesylate, Lilly]",–,–,inactive: -0.203
NC(=O)c1cccc([C@H]2C[C@H]3CC[C@@H](C2)N3CCNCC2CCCCC2)c1,inactive: 1.85,inactive: -1.02,inactive: 1.04
NC(=O)CN1CCN(Cc2nc(-c3cn(CC4CCOCC4)c4c(Cl)cccc34)no2)CC1,inactive: 0.777,inactive: 2.67,inactive: -0.281
[S]=[Hg],inactive: -0.322,inactive: -0.16,–
O=C(O)C1CCCN(CCOC(c2ccccc2)c2ccccc2)C1 (configuration not stated),inactive: -0.695,inactive: -0.47,inactive: 0.0154
C#Cc1cccc2c1c(C(=O)c1ccc(Cn3c(C)nc4cnccc43)c(F)c1)cn2C(=O)N(C)C,inactive: -1.53,inactive: 0.603,inactive: 0.0284
CC[C@]1(O)C(=O)OCc2c1cc1n(c2=O)Cc2cc3c(OC)cccc3nc2-1 [9-Methoxycamptothecin],inactive: -1.89,inactive: -1.51,inactive: -3.29
CSc1ccc(CC(C)N)cc1 (configuration not stated),inactive: -0.28,inactive: 0.778,inactive: 1.4
CC1OC2(CCN(C)CC2)CN1C=O (configuration not stated),inactive: -0.684,inactive: 0.3,inactive: -0.578
CCOc1ccc(Cc2nc3cc(N(C)S(=O)(=O)c4cccs4)ccc3n2CC2CCCCC2)nc1,inactive: 0.215,inactive: -0.127,inactive: 0.784
C=C(Br)CC1(C(C)C)C(=O)NC(=O)N(C)C1=O (configuration not stated),inactive: -1.03,inactive: 1.39,inactive: 0.848
Cc1sc2c(c1C)C(c1ccc(Cl)cc1)=N[C@@H](CC(=O)Nc1ccc(O)cc1)c1nnc(C)n1-2,inactive: 2.69,active: 17.3,active: 11.1
CN1CC[C@@]2(C)c3cc(OC(=O)Nc4ccccc4)ccc3N(C)[C@@H]12 [phenserine],inactive: -0.423,inactive: -0.149,inactive: 0.447
COC1(C)CC(c2ccccc2)c2c(c3ccccc3oc2=O)O1 (configuration not stated),inactive: -0.796,inactive: -1.3,inactive: 1.65
NC(=O)CN1CCCC1=O [piracetam],inactive: 2.05,inactive: -1.21,inactive: 0.475
C=C1C[C@@H]2[C@H](CC[C@]3(C)C(=O)CC[C@@H]23)[C@@]2(C)C=CC(=O)C=C12,inactive: -1.33,inactive: 0.21,–
C=C1C[C@@H]2[C@H](CC[C@]3(C)C(=O)CC[C@@H]23)[C@@]2(C)C=CC(=O)C=C12 [exemestane],–,–,inactive: -1.68
O=C(O)C1N=C(c2ccccc2)c2cc(Cl)ccc2NC1=O (configuration not stated) [Clorazepate dipotassium],inactive: 0.681,inactive: 2.11,–

SMILES,TEAD-luciferase reporter activity (compound concentration: 200 nM),TEAD-luciferase reporter activity (compound concentration: 10 uM),TEAD-luciferase reporter activity (compound concentration: 2 uM)
CCCN1CCO[C@@H]2c3cc(O)ccc3CC[C@H]21 [Naxagolide hydrochloride],inactive: -3.42,inactive: -1.72,inactive: -1.47
CCCCC/C=C\C/C=C\C/C=C\C/C=C\CCCC(=O)NCCO,inactive: -0.222,inactive: 1.91,inactive: 0.0928
CCCCCCCc1cc(O)c(C/C=C(\C)CCC=C(C)C)c(O)c1 [Cannabigerol dimethylheptyl],inactive: -1.59,inactive: 0.615,inactive: -0.0499
C[C@]12CCC3C(CC[C@H]4C[C@@H](O)CC[C@]34C)[C@@H]1C[C@@H](Br)C2=O (some centres not stated),inactive: -0.87,inactive: 0.237,inactive: 1.66
C[C@H](Cc1c[nH]c2c(OCC(=O)O)cccc12)NC[C@H](O)c1cccc(Cl)c1 [Rafabegron],inactive: -2.96,inactive: 0.779,inactive: -0.6
C=CCC1(CC(=C)Br)C(=O)NC(=O)NC1=O,inactive: 0.921,inactive: 3.42,inactive: -0.0744
CC(C)(C)NC[C@@H](O)c1ccc(F)cc1F,inactive: 0.262,inactive: -0.0262,inactive: -1.54
CCN1CCC2CN(C)CCN2C1=O (configuration not stated) [Centperazine],inactive: -0.653,inactive: 0.292,inactive: -0.742
Cc1nnc2n1-c1sc3c(c1C(c1ccccc1Cl)=NC2C)CCN(C(=O)C1CC1)C3 (configuration not stated),inactive: -1.11,inactive: 0.498,inactive: -0.91
COc1cccc(C(=O)N2CCCC2C(=O)N2CCC(N3CCCC3=O)CC2)c1 (configuration not stated),inactive: 2.13,inactive: 1.13,–
CC(=O)Oc1ccc(CC(C(=O)O[C@H]2C[C@H]3CC[C@@H](C2)N3C)c2ccccc2)cc1 (some centres not stated),inactive: 0.959,inactive: -1.1,inactive: 0.148
COC1=C[C@@H]2[C@@H]3Cc4ccc(OC)c(O)c4[C@]2(CCN3C)CC1=O,inactive: 0.122,inactive: -0.593,inactive: -0.458
CC(C)=CCN(c1ccc(CCC(C)(C)C)cc1)C1CCN(Cc2ccc(N(C)C)cc2)CC1,inactive: 0.594,active: 5.73,inactive: 2.62
"CC(=O)O[C@H]1[C@@H](OC(C)=O)C[C@H](O[C@H]2[C@@H](OC(C)=O)C[C@H](O[C@H]3[C@@H](OC(C)=O)C[C@H](O[C@H]4CC[C@@]5(C)[C@H](CC[C@@H]6[C@@H]5C[C@@H](OC(C)=O)[C@]5(C)[C@@H](C7=CC(=O)OC7)CC[C@]65O)C4)O[C@@H]3C)O[C@@H]2C)O[C@@H]1C [Digoxin, Derivative of]",inactive: -0.492,inactive: 4.38,inactive: 1.37
O=c1c2cccc3c2c(cn1C1CN2CCC1CC2)CCC3 (configuration not stated),inactive: -1.63,inactive: -0.396,inactive: 1.13
CN1[C@H]2C[C@H](OC(=O)[C@H](CO)c3ccccc3)C[C@@H]1[C@@H](O)C2 [Anisodamine],inactive: -0.236,active: 5.46,inactive: 0.586
O=C(O)CNC(=O)C1C(=O)N(C2CCCCC2)C(=O)N(C2CCCCC2)C1=O [Daprodustat],inactive: -1.29,inactive: 0.303,inactive: -1.27
O=S(=O)(O)[O][Pt]1([OH])[NH][C@@H]2CCCC[C@H]2[NH]1,inactive: 0.289,inactive: -1.01,inactive: -0.315
COc1cc2c(cc1OC)-c1c(OC)c(OC)cc3c1[C@H](C2)N(C)CC3 [glaucine],inactive: -1.87,inactive: -0.00582,inactive: -1.46

SMILES,TEAD-luciferase reporter activity (compound concentration: 200 nM),TEAD-luciferase reporter activity (compound concentration: 10 uM),TEAD-luciferase reporter activity (compound concentration: 2 uM)
COc1ccc(CCN2CCC(Nc3nc4ccccc4n3Cc3ccc(F)cc3)CC2)cc1 [astemizole],inactive: 0.245,inactive: 2.74,inactive: 1.23
Cc1c[nH]c2c1[C@@]13C[C@@H]1CN(C(=O)c1cc4cc(NC(=O)c5cc6ccccc6o5)ccc4[nH]1)C3=CC2=O,active: 6.44,inactive: -1.07,inactive: -1.02
CCc1c(C(=O)C(N)=O)c2c(OCC(=O)OC)cccc2n1Cc1ccccc1 [Varespladib methyl],inactive: 1.34,inactive: 0.303,inactive: -1.25
COP(=S)(OC)SCN1C(=O)c2ccccc2C1=O,inactive: -0.441,active: 7.78,inactive: 3
CC1Cc2cc3c(cc2C(c2ccc(N)cc2)=NN1)OCO3 (configuration not stated),inactive: -0.285,inactive: 1.85,inactive: -0.282
CCCCCCN1CCC(C(=O)N(C)CC)(c2ccccc2)CC1,inactive: 0.642,inactive: 1.42,inactive: 0.91
O=C(C1CCCN1C(=O)Cc1ccc(F)cc1)N1CCC(N2CCOCC2=O)CC1 (configuration not stated),inactive: -0.00746,inactive: -1.35,–
CN1CCN=C(c2ccccc2)c2cc(Cl)ccc21 [Medazepam],inactive: 0.243,inactive: 0.186,inactive: -0.772
CNCC(=O)c1ccccc1,inactive: -1.31,inactive: -1.13,inactive: -1.77
CC(NC(C)(C)C)C(=O)c1cccc(Cl)c1 (configuration not stated) [bupropion SR],–,–,inactive: -0.868
CC(NC(C)(C)C)C(=O)c1cccc(Cl)c1 (configuration not stated),inactive: -0.5,inactive: -2.31,–
CC12Cc3conc3CC1CCC1C2CCC2(C)C1CCC2(C)O (configuration not stated),inactive: -0.231,inactive: -0.475,inactive: -1.15
C#CCN(C)[C@H](C)Cc1ccc(F)cc1 [parafluoro-selegiline],inactive: -1.16,inactive: 3.41,inactive: 1.88
Cc1cc(O)c2c(=O)c3c(O)cc(O)c4c5c(O)cc(O)c6c(=O)c7c(O)cc(C)c8c1c2c(c34)c(c78)c65 [hypericin],inactive: -0.649,inactive: -0.78,inactive: -0.0221
CCCCNC(=O)OCC#CI,inactive: -0.0611,inactive: -0.801,inactive: 0.129
O=C1CN=C(c2ccccc2)c2cc(Cl)ccc2N1CC1CC1 [Prazepam],active: 12.5,active: 6.28,–
CN1C(=O)CN=C(C2=CCCCC2)c2cc([N+](=O)[O-])ccc21,inactive: -0.927,inactive: 0.516,inactive: -0.917
CC(O)CCC(=O)c1ccoc1 (configuration not stated),inactive: -1.38,inactive: 1.33,inactive: 0.166
O=C1c2ccccc2C(=O)C1C(=O)C(c1ccccc1)c1ccccc1,inactive: -0.233,inactive: 1.03,inactive: -2.1

# Reformatted with bars between the fields: entries from further up.
SMILES | TEAD-luciferase reporter activity (compound concentration: 200 nM) | TEAD-luciferase reporter activity (compound concentration: 10 uM) | TEAD-luciferase reporter activity (compound concentration: 2 uM)
NC(=O)c1cccc([C@H]2C[C@H]3CC[C@@H](C2)N3CCNCC2CCCCC2)c1 | inactive: 1.85 | inactive: -1.02 | inactive: 1.04
NC(=O)CN1CCN(Cc2nc(-c3cn(CC4CCOCC4)c4c(Cl)cccc34)no2)CC1 | inactive: 0.777 | inactive: 2.67 | inactive: -0.281
[S]=[Hg] | inactive: -0.322 | inactive: -0.16 | –
O=C(O)C1CCCN(CCOC(c2ccccc2)c2ccccc2)C1 (configuration not stated) | inactive: -0.695 | inactive: -0.47 | inactive: 0.0154
C#Cc1cccc2c1c(C(=O)c1ccc(Cn3c(C)nc4cnccc43)c(F)c1)cn2C(=O)N(C)C | inactive: -1.53 | inactive: 0.603 | inactive: 0.0284
CC[C@]1(O)C(=O)OCc2c1cc1n(c2=O)Cc2cc3c(OC)cccc3nc2-1 [9-Methoxycamptothecin] | inactive: -1.89 | inactive: -1.51 | inactive: -3.29
CSc1ccc(CC(C)N)cc1 (configuration not stated) | inactive: -0.28 | inactive: 0.778 | inactive: 1.4
CC1OC2(CCN(C)CC2)CN1C=O (configuration not stated) | inactive: -0.684 | inactive: 0.3 | inactive: -0.578
CCOc1ccc(Cc2nc3cc(N(C)S(=O)(=O)c4cccs4)ccc3n2CC2CCCCC2)nc1 | inactive: 0.215 | inactive: -0.127 | inactive: 0.784
C=C(Br)CC1(C(C)C)C(=O)NC(=O)N(C)C1=O (configuration not stated) | inactive: -1.03 | inactive: 1.39 | inactive: 0.848
Cc1sc2c(c1C)C(c1ccc(Cl)cc1)=N[C@@H](CC(=O)Nc1ccc(O)cc1)c1nnc(C)n1-2 | inactive: 2.69 | active: 17.3 | active: 11.1
CN1CC[C@@]2(C)c3cc(OC(=O)Nc4ccccc4)ccc3N(C)[C@@H]12 [phenserine] | inactive: -0.423 | inactive: -0.149 | inactive: 0.447
COC1(C)CC(c2ccccc2)c2c(c3ccccc3oc2=O)O1 (configuration not stated) | inactive: -0.796 | inactive: -1.3 | inactive: 1.65
NC(=O)CN1CCCC1=O [piracetam] | inactive: 2.05 | inactive: -1.21 | inactive: 0.475

# Source: the supplement of paper PMC10735217
